## Screening data, single-dose tests

Measurements from “University of Dundee, Small-Polar-MMV Screening Library” (2021), ChEMBL document CHEMBL3988442.

Mtb cholesterol medium: 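Phenotypic screen: M. tuberculosis growth, cholesterol and DPPC medium, 4 days; the read-out is not stated. Tested at 50 µM. The record gives no direction; compounds that gave an IC50 in retests scored well above the rest, so higher reads as more growth inhibition. About 69,000 compounds were tested under these conditions; 0.54% (about 370) showed 50% or more at least once.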
Mtb glucose medium: 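Whole-cell growth test on Mycobacterium tuberculosis, read after 3 days in glucose-containing 7H9 medium; the read-out is not stated. Compounds at 50 µM. Direction is inferred from retests: higher values go with more growth inhibition. Size under these conditions: about 69,000 compounds, about 760 of them at 50% or above in at least one test.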

Values are the deposited “Percent Effect”, in %.
The record does not define 0% and 100%; most values in the screen are far below 50% and negative numbers occur (in some assays of this library far below -100).
Compounds were drawn at random from those tested, without regard to their results.
Two or more numbers in one place are separate tests of the same structure; such repeats can differ widely.

SMILES	Mtb cholesterol medium	Mtb glucose medium
CCc1ccccc1NC(=O)CCc1cnn(C)c1	-23.51	-16.53
CCC1(C(=O)O)CCCN(C(=O)c2ccc(N3CCN(C)CC3)cc2)C1 (stereo not drawn)	17.77	11.31
COc1cccc(-n2cc(CN(C)C(=O)c3cc[nH]n3)cn2)c1	-14.34	-28.79
O=C(O)C(F)(F)F.[H][C@@]12C[C@@H](C(=O)NC(C)C)C[C@@]1([H])N(Cc1cnn(C)c1)CCO2	1.438	-15.62
COCC[C@]1(O)CCN(Cc2nnc(C)s2)C[C@H]1C	10.17	-3.154 & -4.702
CC(NCc1cc(O)c2cccc(F)c2n1)c1ccc(S(C)(=O)=O)cc1 (stereo not drawn)	0.7901	-18.33
COc1ccc(C(C(=O)O)N2CCCN(C3CCCCC3)CC2)cn1 (stereo not drawn)	3.906	14.36
CCOc1c(F)cccc1C(=O)N(CC)C(C)c1ccncc1 (stereo not drawn)	-4.032	7.309
[H][C@]12CC[C@]([H])(CN(c3ncccn3)C1)N(Cc1ccsc1)C2	-2.531	32.23
CN(C)Cc1nc(C(=O)N2CCCC(COc3ccc(F)cc3)C2)cs1 (stereo not drawn)	22.42	19.33
Cc1nn(C)c2nc(NCCCN3CCCC(C(N)=O)C3)sc12 (stereo not drawn)	-15.21	10.75
CS(=O)(=O)N1CCCC12CCCN(S(=O)(=O)c1ccc(F)cc1)C2 (stereo not drawn)	-13.19	-17.56
COc1ccc2c(c1)CCCC2CC(=O)O (stereo not drawn)	11.06	3.174 & 21.01
CC(=O)NCC1CCN(c2ccnc3ccc(Br)cc23)CC1	5.442	-14.04 & 4.417
Cc1cccc(C(=O)N2CCCC(c3noc(C)n3)C2)n1 (stereo not drawn)	1.068	-1.379
CCC(=O)N(CC)C(c1cccnc1)c1ccc2c(c1)CCO2 (stereo not drawn)	-15.73 & 11.88	9.453
Nc1cc(CCC2CN(Cc3ccc4c(c3)OCCO4)CCO2)ccn1 (stereo not drawn)	-3.608	27.85
O=C(NC[C@]1(O)CN(Cc2ccc(F)cc2)C[C@H]1O)c1ccccn1	-19.21	-13.44
Cc1nc(CN2CCc3ccc(S(N)(=O)=O)cc32)oc1C	-0.9584	-2.89
O=C(Cc1cccnc1)N1CC(Cc2nccc3cc[nH]c23)C1	-18.66	-9.588
Cc1nn(C)c2nc(N3CCN(Cc4nccn4C)CC3)sc12	8.461	8.476 & 25.35
Cc1nn(C)c2ncnc(NCc3nncn3C3CCCCC3)c12	-0.8045	13.81
COc1ccnc(NC2CCN(CC(=O)Nc3ccccc3)CC2)n1	0.8403 & -3.177	-26.48
CCOCCNC(=O)c1cccc(Cn2nc(C)cc2C)c1	3.118	-10.66
Cc1ccc(CNC(=O)N(C)Cc2ccc([S+](C)[O-])cc2)s1 (stereo not drawn)	-4.51	2.089 & -0.2503
O=C(O)C(F)(F)F.[H][C@@]12CN(CC)CCO[C@]1([H])CN(C(=O)c1cocn1)C2	-24.47	-44.73 & -12.32
CCOC(=O)CNC(=O)c1cccnc1Sc1cc(OC)ccc1OC	-19.24	10.42
Cn1ccnc1C(=O)N1CCCC1c1ccc(C(=O)N2CCOCC2)s1 (stereo not drawn)	-2.192 & 3.578	3.256 & -8.332
[H][C@@]12CCN(C(=O)C3CC(F)(F)C3)C[C@]1(COC)CCO2	-9.663	-11.92
Cc1ncc(-c2ccnc(N[C@@H](C)CO)n2)c(C2CCCCC2)n1	-19.76	-12.06
CNC(=O)c1cc2c(nc1N(C)C)CCN(S(=O)(=O)N(C)C)CC2.O=C(O)C(F)(F)F	-5.096	32.77 & 0.07673
O=C(O)C(F)(F)F.[H][C@@]12CN(CC3CCCC3)CCO[C@]1([H])CN(C(=O)c1cnc(C)cn1)C2	-28.66	10.54
CC(C)c1nc(C2CCCN2CC(=O)N2CCc3ccccc32)no1 (stereo not drawn)	4.031	-12.2
Cc1nc(C)n(CC2CN(Cc3cccc4ccccc34)CCO2)n1 (stereo not drawn)	6.249	26.8
CN(Cc1ccncn1)C(=O)CCc1[nH]nc2c1CCCC2	-1.008	-6.598 & -4.082
COCC(=O)N1CCC(C(=O)N(C)C(C)c2ccon2)CC1 (stereo not drawn)	-5.75	12.75
O=C(NCCN1CCOCC1)N1CCN(c2ccccc2)CC1	-5.912	3.441
[H][C@]12CC[C@]([H])(CN(c3ncccn3)C1)N(C(=O)c1cccnc1SC)C2	-22.59	-3.335
COc1cc(CNCCC(N)=O)c2c(c1)CC(C)O2 (stereo not drawn)	-12.68	-2.488 & 32.65
CNC(=O)c1nc(COc2c(C)occc2=O)no1	-13.58	-0.6352
COc1ccnc(N2CCCN(C(=O)Cc3ccc(C)s3)CC2)n1	28.27	25.72
O=S1(=O)N(c2ccccc2)C[C@@H](O)[C@]12CCNC2	-2.673	11.71
O=C(c1ccc2nccn2c1)N1CCC(CCn2cccn2)CC1	-3.327	-10.17
Cc1nn(C)c(NC(=O)C2SCCc3ccccc32)c1C (stereo not drawn)	8.225	5.877
CCC(CCO)NS(=O)(=O)c1ccc(Br)cn1 (stereo not drawn)	13.06	14.27
Cn1cc(N2CC3(COCCN(Cc4nccs4)C3)OCC2=O)cn1.O=C(O)C(F)(F)F (stereo not drawn)	8.082	-16.46
c1ccc(-c2noc(CN3CCc4c(ncn4C4CC4)C3)n2)nc1	-17.47	-14.84 & 4.046
Cn1cnc2c1C(COCC1CCOCC1)CN(C(=O)C1CC=CC1)C2.O=C(O)C(F)(F)F (stereo not drawn)	-21.5	9.491
[H][C@@]12COC[C@]1(CNS(C)(=O)=O)CN(C(=O)c1cccn1C)C2	-4.468 & -8.757	-4.272 & -5.698
CC(Cn1ccnc1)NC(=O)N1CCN(Cc2ccsc2)CC1 (stereo not drawn)	5.817	-7.545
CN(C)c1ccc(CCCNC(=O)NCC(O)c2cccs2)cc1 (stereo not drawn)	6.213	6.063
Cc1cnc(CN2CCCCC2c2nc(-c3ccccc3)no2)cn1 (stereo not drawn)	-15.64	-16.86
Cc1ncc(-c2ccncc2)c(C2CCCN(C(=O)c3ccno3)C2)n1 (stereo not drawn)	-22.92 & -22.84	-18.08

Repeated from the top, 3 entries:

| SMILES | Mtb cholesterol medium | Mtb glucose medium |
|---|---|---|
| `CCc1ccccc1NC(=O)CCc1cnn(C)c1` | -23.51 | -16.53 |
| `CCC1(C(=O)O)CCCN(C(=O)c2ccc(N3CCN(C)CC3)cc2)C1` (stereo not drawn) | 17.77 | 11.31 |
| `COc1cccc(-n2cc(CN(C)C(=O)c3cc[nH]n3)cn2)c1` | -14.34 | -28.79 |